At least one structure is not confirmed: it was looked up by name or label, or the drawing left a doubt.
Biological target: T1, cathepsin B in rat liver (Rattus norvegicus, UniProt P00787)
T1 construct: from tissue; host or cells: liver of female Sprague Dawley rats (homogenate or lysosomal preparation)
Assay: In vivo inhibition of cathepsin B in rat liver

Sequences of proteins named here, by UniProt entry; tags and fusion partners are left off. Residues count along the entry.
UniProt P00787, 80-333 limits assumed: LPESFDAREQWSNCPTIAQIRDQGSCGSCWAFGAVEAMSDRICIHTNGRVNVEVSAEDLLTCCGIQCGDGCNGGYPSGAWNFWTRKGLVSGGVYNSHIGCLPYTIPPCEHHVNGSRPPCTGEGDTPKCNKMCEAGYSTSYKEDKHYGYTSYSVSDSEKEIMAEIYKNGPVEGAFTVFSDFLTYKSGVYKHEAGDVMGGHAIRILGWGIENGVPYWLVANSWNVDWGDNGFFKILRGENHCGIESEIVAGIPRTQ

Row | Structure (SMILES) | in vivo inhibition of cathepsin B in rat liver (via stomach tube, 1.5 hours post dose) | in vivo inhibition of cathepsin B in rat liver (via stomach tube, 3 hours post dose) | in vivo inhibition of cathepsin B in rat liver (via stomach tube, 12 hours post dose) | in vivo inhibition of cathepsin B in rat liver (via stomach tube, 24 hours post dose) | in vivo inhibition of cathepsin B in rat liver (via injection, IP, 800 nM dose, 1.5 hours post dose) | in vivo inhibition of cathepsin B in rat liver (via injection, IP, 800 nM dose, 3 hours post dose) | in vivo inhibition of cathepsin B in rat liver (via injection, IP, 1600 nM dose, 1.5 hours post dose) | in vivo inhibition of cathepsin B in rat liver (via injection, IP, 1600 nM dose, 3 hours post dose) | in vivo inhibition of cathepsin B in rat liver (via stomach tube, 800 nM dose, 3 hours post dose) | in vivo inhibition of cathepsin B in rat liver (via stomach tube, 800 nM dose, 6 hours post dose) | in vivo inhibition of cathepsin B in rat liver (via stomach tube, 1600 nM dose, 3 hours post dose) | in vivo inhibition of cathepsin B in rat liver (via stomach tube, 1600 nM dose, 6 hours post dose)
1 | O=C(COc1cc(=O)oc2ccccc12)[C@H](CCc1ccccc1)NC(=O)[C@H](Cc1ccccc1)NC(=O)N1CCOCC1 [Compound 6, N-Morpholinecarbonyl-L-phenylalanyl-L-homophenylalanyl-α-(4-oxy-coumarin) methyl ketone] | 48 | 29 | 30 | 0 | – | – | – | – | – | – | – | –
2 | O=C1C=C(OCC(=O)[C@H](CCc2ccccc2)NC(=O)[C@H](Cc2ccccc2)NC(=O)N2CCOCC2)CO1 [Compound 12, N-Morpholinecarbonyl-L-phenylalanyl-L-homophenylalanyl-α-(4-oxy-dihydrofuran-2-one) methyl ketone] | – | – | – | – | 55 | 70 | 79 | 70 | 35 | 31 | 53 | 32
